Values from PubChem BioAssay AID743456 (Peter MacCallum Cancer Centre, 2014).
The whole screen tested 878 reagents; shown is a random part of them. Over the whole deposit, 27 (3.1%) were called active. 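27 mimics are marked active, unlike an earlier stated count of 24; the viability threshold is described inconsistently.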 The record does not give: the amount of reagent.

- Screen: 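Mimic library tested for viability and apoptosis changes under vorinostat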 (primary screen)
- Cell system: human HCT116-VR colon cancer cells, a vorinostat-resistant HCT116 line
- Reagent: miRNA mimic
- Timing: about 3 days from transfection to readout; drug present for the last 24 h
- Challenge: vorinostat at 2.5 µM final for 24 h
- Detection: 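Per-well live-cell protease fluorescence and caspase luminescence under 2.5 µM vorinostat for 24 h, scored as robust z-scores and against mock transfection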
- Scale: viability robust z-score and viability vs mock transfection: higher = more viable cells; caspase robust z-score: higher = more caspase activity, more apoptosis
- Call rule: 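a mimic counts as active if it lands in a lowered-viability class or a caspase-activation class; wells with too few cells without drug are left out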

no.	miRNA	viability robust z-score	caspase robust z-score	viability hit class	caspase hit class	viability vs mock transfection	Outcome
1	hsa-miR-20b	0.7	0.24	no change	no change	0.9	inactive
2	hsa-miR-380	0.96	-0.44	no change	no change	0.94	inactive
3	hsa-miR-638	1.22	-0.42	no change	no change	1	inactive
4	hsa-miR-422a	-1.4	2.11	no change	no change	0.5	inactive
5	hsa-miR-130a*	0.19	-0.85	no change	no change	0.78	inactive
6	hsa-miR-126	-0.61	-0.75	no change	no change	0.7	inactive
7	hsa-miR-195	-1.31	1.04	no change	no change	0.52	inactive
8	hsa-miR-590-3p	0.5	-0.5	no change	no change	0.86	inactive
9	hsa-miR-134	-0.88	3.33	no change	no change	0.6	inactive
10	hsa-miR-100	0.54	0.25	no change	no change	0.88	inactive
11	hsa-miR-379*	0.56	-0.62	no change	no change	0.88	inactive
12	hsa-miR-505	-0.34	0.48	no change	no change	0.74	inactive
13	hsa-miR-520d-5p	-0.14	-0.19	no change	no change	0.72	inactive
14	hsa-miR-1915*	-0.07	1.74	no change	no change	0.74	inactive
15	hsa-miR-518e	0.52	2.36	no change	no change	0.84	inactive
16	hsa-miR-452*	-0.78	-0.89	no change	no change	0.62	inactive
17	hsa-miR-574-5p	0.08	0.24	no change	no change	0.8	inactive
18	hsa-miR-296-5p	0.11	-0.36	no change	no change	0.8	inactive
19	hsa-miR-1248	0.12	0.26	no change	no change	0.81	inactive
20	hsa-miR-1182	0.23	-0.71	no change	no change	0.8	inactive
21	hsa-miR-656	0.59	-0.78	no change	no change	0.86	inactive
22	hsa-miR-361-3p	0.03	-0.32	no change	no change	0.76	inactive
23	hsa-miR-920	1.36	-0.3	no change	no change	0.99	inactive
24	hsa-miR-1258	-0.72	0.38	no change	no change	0.69	inactive
25	hsa-miR-499-5p	0.21	0.24	no change	no change	0.79	inactive
26	hsa-miR-223*	0.62	-0.62	no change	no change	0.89	inactive
27	hsa-miR-125a-5p	1.6	-0.99	no change	no change	1.04	inactive
28	hsa-miR-1293	-3.16	2.51	reduced viability	no change	0.18	active
29	hsa-miR-149	-0.03	-0.42	no change	no change	0.78	inactive
30	hsa-miR-19a	0.19	0.31	no change	no change	0.82	inactive
31	hsa-miR-200c	-0.55	-0.41	no change	no change	0.7	inactive
32	hsa-miR-615-3p	-0.36	-0.14	no change	no change	0.73	inactive
33	hsa-miR-24-2*	-0.06	1.85	no change	no change	0.78	inactive
34	hsa-miR-637	-2.12	0.63	no change	no change	0.44	inactive
35	hsa-miR-892a	-1.68	1.07	no change	no change	0.44	inactive
36	hsa-miR-34c-3p	0.05	-0.39	no change	no change	0.75	inactive
37	hsa-miR-924	-0.52	-0.97	no change	no change	0.7	inactive
38	hsa-miR-644	-3.2	1.43	reduced viability	no change	0.18	active
39	hsa-miR-149*	-0.92	2.79	no change	no change	0.63	inactive
40	hsa-miR-566	1.03	-0.53	no change	no change	0.94	inactive
41	hsa-miR-1914*	0.94	-0.6	no change	no change	0.92	inactive
42	hsa-miR-455-3p	1.29	-0.48	no change	no change	0.99	inactive
43	hsa-miR-1179	0.68	-0.45	no change	no change	0.9	inactive
44	hsa-miR-520g	0.56	0.8	no change	no change	0.88	inactive
45	hsa-miR-453	-2.33	6.8	no change	caspase activation	0.4	active
46	hsa-miR-2110	-0.71	1.25	no change	no change	0.62	inactive
47	hsa-miR-572	1.25	-0.29	no change	no change	0.98	inactive
48	hsa-miR-768-3p	0.28	-0.39	no change	no change	0.84	inactive
49	hsa-miR-454	1.68	0.5	no change	no change	1.04	inactive
50	hsa-miR-16-2*	-0.25	-0.44	no change	no change	0.75	inactive

Called active, of those listed so far:
miRNA	viability robust z-score	caspase robust z-score	viability hit class	caspase hit class	viability vs mock transfection	Outcome
hsa-miR-1293	-3.16	2.51	reduced viability	no change	0.18	active
hsa-miR-644	-3.2	1.43	reduced viability	no change	0.18	active
hsa-miR-453	-2.33	6.8	no change	caspase activation	0.4	active
